Consider one molecule from article doi:10.1101/2024.10.21.619550.

Chains of the proteins cited; added tags and fusions are not shown.
UniProt P31946: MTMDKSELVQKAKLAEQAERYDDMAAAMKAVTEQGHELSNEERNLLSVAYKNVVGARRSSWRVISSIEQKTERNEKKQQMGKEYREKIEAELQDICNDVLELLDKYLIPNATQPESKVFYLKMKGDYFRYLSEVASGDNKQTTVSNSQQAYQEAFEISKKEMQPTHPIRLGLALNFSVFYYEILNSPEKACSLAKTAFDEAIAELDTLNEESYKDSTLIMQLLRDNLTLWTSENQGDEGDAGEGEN
UniProt P46937: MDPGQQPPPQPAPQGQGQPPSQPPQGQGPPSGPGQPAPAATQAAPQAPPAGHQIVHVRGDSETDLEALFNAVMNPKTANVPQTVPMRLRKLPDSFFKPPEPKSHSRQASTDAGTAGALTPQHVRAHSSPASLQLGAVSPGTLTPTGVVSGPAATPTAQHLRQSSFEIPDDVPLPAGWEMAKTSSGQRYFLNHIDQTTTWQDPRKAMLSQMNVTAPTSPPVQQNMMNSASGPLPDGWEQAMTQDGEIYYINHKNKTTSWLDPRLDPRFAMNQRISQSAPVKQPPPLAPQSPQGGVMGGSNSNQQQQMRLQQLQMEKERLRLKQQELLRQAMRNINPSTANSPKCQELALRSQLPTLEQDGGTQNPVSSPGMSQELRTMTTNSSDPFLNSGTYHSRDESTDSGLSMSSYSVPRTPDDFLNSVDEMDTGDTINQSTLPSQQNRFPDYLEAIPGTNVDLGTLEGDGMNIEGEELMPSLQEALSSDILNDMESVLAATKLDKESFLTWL

Results are given in words; binding and its absence hold for the method and conditions named. Binding seen in cells or lysates may run through a third protein. Some entries that bind do so weakly or less than the wild type.

The target in assay [1] is 14-3-3β protein (YWHAB) (human (endogenous in HUVECs)) (UniProt P31946). Briefly: co-IP.
The target in a further assay is p-YAP(s127) (UniProt P46937). Nature of the assay: co-IP.

B1: zyxin (protein, UniProt Q15942 1-572)
chain: MAAPRPSPAISVSVSAPAFYAPQKKFGPVVAPKPKVNPFRPGDSEPPPAPGAQRAQMGRVGEIPPPPPEDFPLPPPPLAGDGDDAEGALGGAFPPPPPPIEESFPPAPLEEEIFPSPPPPPEEEGGPEAPIPPPPQPREKVSSIDLEIDSLSSLLDDMTKNDPFKARVSSGYVPPPVATPFSSKSSTKPAAGGTAPLPPWKSPSSSQPLPQVPAPAQSQTQFHVQPQPQPKPQVQLHVQSQTQPVSLANTQPRGPPASSPAPAPKFSPVTPKFTPVASKFSPGAPGGSGSQPNQKLGHPEALSAGTGSPQPPSFTYAQQREKPRVQEKQHPVPPPAQNQNQVRSPGAPGPLTLKEVEELEQLTQQLMQDMEHPQRQNVAVNELCGRCHQPLARAQPAVRALGQLFHIACFTCHQCAQQLQGQQFYSLEGAPYCEGCYTDTLEKCNTCGEPITDRMLRATGKAYHPHCFTCVVCARPLEGTSFIVDQANRPHCVPDYHKQYAPRCSVCSEPIMPEPGRDETVRVVALDKNFHMKCYKCEDCGKPLSIEADDNGCFPLDGHVLCRKCHTARAQT
As for B1, the figures for the binding entry (in assay [1]; in the assay with p-YAP(s127)) were “binds” and “no binding”, respectively.
